Our source for the activity on this sequence (insertions per target transformant) values is US5728551.

The exact form of at least one protein or probe is not confirmed. Protein sequences can lack the tags named with them.

This data set deals with T1, Ty1 integrase (in Ty1 virus-like particles) (Saccharomyces cerevisiae) (UniProt Q07163).
T1 sequence (looked up, limits assumed): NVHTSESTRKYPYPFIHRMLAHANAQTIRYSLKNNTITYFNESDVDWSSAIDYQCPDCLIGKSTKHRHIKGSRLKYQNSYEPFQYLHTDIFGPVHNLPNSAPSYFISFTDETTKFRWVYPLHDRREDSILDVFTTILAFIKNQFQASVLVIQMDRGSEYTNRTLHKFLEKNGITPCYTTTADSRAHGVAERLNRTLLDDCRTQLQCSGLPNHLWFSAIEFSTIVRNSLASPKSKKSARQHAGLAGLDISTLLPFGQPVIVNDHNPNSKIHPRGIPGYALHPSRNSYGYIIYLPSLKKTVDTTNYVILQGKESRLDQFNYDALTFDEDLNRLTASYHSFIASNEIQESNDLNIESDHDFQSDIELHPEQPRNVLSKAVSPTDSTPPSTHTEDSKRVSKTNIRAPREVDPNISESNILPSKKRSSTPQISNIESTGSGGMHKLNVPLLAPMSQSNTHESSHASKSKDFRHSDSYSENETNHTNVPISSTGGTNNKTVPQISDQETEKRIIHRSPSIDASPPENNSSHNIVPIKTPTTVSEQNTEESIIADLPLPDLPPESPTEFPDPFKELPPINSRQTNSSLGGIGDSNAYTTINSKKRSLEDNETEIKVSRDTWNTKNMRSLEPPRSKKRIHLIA
Put plainly: activity assay. The following applies: in vitro integration into plasmid p76-2; 15 mM MgCl2, 10 mM Tris pH 7.5, 10 mM KCl, 1 mM DTT, 5% PEG 8000, 30 C then 37 C; 9.1e-7 with 25 mM EDTA.

In the case of “TGTTCACCGCGGTGGCGGCCGCTCTAGAACTAGTGGATCCTGCAAGCAGGATAGACGGCATGCACGATTTGTAATAACAGAGTGTCTTGTATTTTTAAAGAAAGTCTATTTAATACAAGTGATTATATTAATTAACGGTAAGCATCAGCGGGTGACAAAACGAGCATGCTTACTAATAAAATGTTAACCTCTGAGGAAGAATTGTGAAACTATCACTAATGGTAGCTATATCGAAGAATGGAGTTATCGGGAATGGCCCTGATATTCCATGGAGTGCCAAAGGTGAACAGCTCCTGTTTAAAGCTATTACCTATAACCAATGGCTGTTGGTTGGACGCAAGACTTTTGAATCAATGGGAGCATTACCCAACCGAAAGTATGCGGTCGTAACACGTTCAAGTTTTACATCTGACAATGAGAACGTATTGATCTTTCCATCAATTAAAGATGCTTTAACCAACCTAAAGAAAATAACGGATCATGTCATTGTTTCAGGTGGTGGGGAGATATACAAAAGCCTGATCGATCAAGTAGATACACTACATATATCTACAATAGACATCGAGCCGGAAGGTGATGTTTACTTTCCTGAAATCCCCAGCAATTTTAGGCCAGTTTTTACCCAAGACTTCGCCTCTAACATAAATTATAGTTACCAAATCTGGCAAAAGGGTTAACAAGTGGCAGCAACGGATTCGCAAACCTGTCACGCCTTTTGTGCCAAAAGCCGCGCCAGGTTTGCGATCCGCTGTGCCAGGCGTTAGGCGTCATATGAAGATTTCGGTGATCCCTGAGCAGGTGGCGGAAACATTGGATGCTGAGAATTCGATATCAAGCTTATCGATACCGTCGACCTCGAGAACA (double strand) [AT-2 artificial transposon (PART)]”, the activity on this sequence (insertions per target transformant) turned out to be 4.2e-05.
